According to publication PMC2390571:

Key:
[1] = molecular target: NKX3.1 (in LNCaP nuclear extract) (Homo sapiens) (UniProt Q99801); experiment: EMSA; conditions: 20 mM HEPES pH 7.6, 30 mM KCl, 1 mM EDTA, 1 mM DTT, 0.2% Tween-20, 1 ug poly(dI-dC), 0.1 ug poly(L-Lys), 20 ug nuclear extract, 0.8 ng DIG probe, 20 ul, 20 min; protein in an extract; label: DIG
[2] = molecular target: NKX3.1 (in LNCaP nuclear extract) (Homo sapiens) (UniProt Q99801); experiment: EMSA, self-competition and antibody blocking; conditions: 250-fold unlabelled NBS3 and anti-NKX3.1 antibody block the complex; 20 mM HEPES pH 7.6, 30 mM KCl, 1 mM EDTA, 1 mM DTT, 0.2% Tween-20, 1 ug poly(dI-dC), 0.1 ug poly(L-Lys), 20 ug nuclear extract, 0.8 ng DIG probe, 20 ul, 20 min; protein in an extract; label: DIG (probe), unlabelled as competitor

CAATAAGTTTTAT (double strand) [NBS4]: no binding [1].
TGTTAAGTATCCT (double strand) [NBS5]: no binding [1].
AAATAAGTAGCCT (double strand) [NBS3]: binds [2].
AGGTAAGTAAAG (double strand) [NBS2]: no binding [1].

The exact form of at least one protein or probe is not confirmed. At least one result comes from cells or an extract, where the contact may be indirect. For some of these results: A negative result means that nothing was seen under these conditions. For some of these results: At least one verdict was read from the data and is not stated in words by the source.
